# According to the supplement of paper PMC8728848:
# Some of the results follow.
# B1: SspB A3vp1 (Streptococcus gordonii), Q54186 (protein)
# chain: MTNEADYQAKLAAYQTELARVQKANADAKATYEKAVEDNKAKNAAIKAENEEIKQRNAVAKTDYEAKLAKYEADLAKYKKEFAAYTAALAEAESKKKQDGYLSEPRSQSLNFKSEPNAIRTIDSSVHQYGQQELDALVKSWGISPTNPDRKKSRAYSYFNAINSNNTYAKLVLEKDKPVDVTYTGLKNSSFNGKKISKVVYTYTLKETGFNDGTKMTMFASSDPTVTAWYNDYFTSTNINVKVKFYDEEGQLMNLTGGLVNFSSLNRGNGSGAIDKDAIESVRNFNGRYIPISGSSIKIHENNSAYADSSNAEKSLGARWNTSEWDTTSSPNNWYGAIVGEITQSEISFNMASSKSGNIWFAFNSNINAIGVPTKPVAPTAPTQPMYETEKPLEPAPVAPSYENEPTPPVKTPDQPEPSKPAAALEHHHHHH
# Key:
# Experiment in all cases: glycan array binding signal (z-score within array); higher = stronger binding
# Details in all cases: glycan notation: IUPAC condensed, linker removed
# [1] = biological target: Fuc(a1-2)Gal(b1-4)GlcNAc(b1-3)Gal(b1-4)GlcNAc(b1-2)Man(a1-3)[Fuc(a1-2)Gal(b1-4)GlcNAc(b1-3)Gal(b1-4)GlcNAc(b1-2)Man(a1-6)]Man(b1-4)GlcNAc(b1-4)GlcNAc
# Summary of the method: (§1)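 Glycan array binding is given as a within-array Z-score, which can be read as non-binding when negative. The arrays, 3228 of them, came from the Consortium for Functional Glycomics database and were retained only where the protein sequence was available. Z-scores were averaged across arrays of the same protein sequence at different concentrations or buffers and across linkers.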
# [2] = biological target: Fuc(a1-2)Gal(b1-4)GlcNAc(b1-3)Gal(b1-4)GlcNAc(b1-3)Gal(b1-4)GlcNAc
# Summary of the method: as §1
# [3] = biological target: Fuc(a1-2)Gal(b1-4)GlcNAc(b1-3)GalNAc
# Summary of the method: as §1
# [4] = biological target: Fuc(a1-2)Gal(b1-4)GlcNAc(b1-3)[Fuc(a1-2)Gal(b1-4)GlcNAc(b1-6)]GalNAc
# Summary of the method: as §1
# [5] = biological target: Fuc(a1-2)Gal(b1-4)GlcNAc(b1-3)[Fuc(a1-3)[Gal(b1-4)]GlcNAc(b1-6)]Gal(b1-4)Glc
# Summary of the method: as §1
# [6] = biological target: Fuc(a1-2)Gal(b1-4)GlcNAc(b1-6)GalNAc
# Summary of the method: as §1
# [7] = biological target: Fuc(a1-2)Gal(b1-4)GlcNAc6S
# Summary of the method: as §1
# [8] = biological target: Fuc(a1-2)Gal(b1-4)[Fuc(a1-3)]GlcNAc
# Summary of the method: as §1
# [9] = biological target: Fuc(a1-2)Gal(b1-4)[Fuc(a1-3)]GlcNAc(b1-2)Man(a1-3)[Fuc(a1-2)Gal(b1-4)[Fuc(a1-3)]GlcNAc(b1-2)Man(a1-6)]Man(b1-4)GlcNAc(b1-4)[Fuc(a1-6)]GlcNAc
# Summary of the method: as §1
# [10] = biological target: Fuc(a1-2)Gal(b1-4)[Fuc(a1-3)]GlcNAc(b1-2)[Fuc(a1-2)Gal(b1-4)[Fuc(a1-3)]GlcNAc(b1-4)]Man(a1-3)[Fuc(a1-2)Gal(b1-4)[Fuc(a1-3)]GlcNAc(b1-2)Man(a1-6)]Man(b1-4)GlcNAc(b1-4)GlcNAc
# Summary of the method: as §1
# [11] = biological target: Fuc(a1-2)Gal(b1-4)[Fuc(a1-3)]GlcNAc(b1-3)Gal(b1-4)[Fuc(a1-3)]GlcNAc
# Summary of the method: as §1
# [12] = biological target: Fuc(a1-2)Gal(b1-4)[Fuc(a1-3)]GlcNAc(b1-3)Gal(b1-4)[Fuc(a1-3)]GlcNAc(b1-3)Gal(b1-4)[Fuc(a1-3)]GlcNAc
# Summary of the method: as §1
# [13] = biological target: Fuc(a1-2)Gal(b1-4)[Fuc(a1-3)]GlcNAc(b1-3)GalNAc
# Summary of the method: as §1
# [14] = biological target: Fuc(a1-2)Gal(b1-4)[Fuc(a1-3)]GlcNAc(b1-3)[Neu5Ac(a2-6)Gal(b1-4)GlcNAc(b1-6)]Gal(b1-4)Glc
# Summary of the method: as §1
# [15] = biological target: Fuc(a1-2)Gal3S(b1-4)GlcNAc
# Summary of the method: as §1
# [16] = biological target: Fuc(a1-2)Gal6S(b1-3)GlcNAc
# Summary of the method: as §1
# [17] = biological target: Fuc(a1-2)Gal6S(b1-3)GlcNAc6S
# Summary of the method: as §1
# Fuc(a1-2)Gal6S(b1-4)Glc = biological target: Fuc(a1-2)Gal6S(b1-4)Glc
# Summary of the method: as §1
# [18] = biological target: Fuc(a1-2)Gal6S(b1-4)Glc6S
# Summary of the method: as §1
# Fuc(a1-2)[Gal(a1-3)]Gal = biological target: Fuc(a1-2)[Gal(a1-3)]Gal
# Summary of the method: as §1
# [19] = biological target: Fuc(a1-2)[Gal(a1-3)]Gal(b1-3)GalNAc
# Summary of the method: as §1
# [20] = biological target: Fuc(a1-2)[Gal(a1-3)]Gal(b1-3)GalNAc(b1-3)Gal(a1-4)Gal(b1-4)Glc
# Summary of the method: as §1
# [21] = biological target: Fuc(a1-2)[Gal(a1-3)]Gal(b1-3)GlcNAc
# Summary of the method: as §1
# [22] = biological target: Fuc(a1-2)[Gal(a1-3)]Gal(b1-3)GlcNAc(b1-2)Man(a1-3)[Fuc(a1-2)[Gal(a1-3)]Gal(b1-3)GlcNAc(b1-2)Man(a1-6)]Man(b1-4)GlcNAc(b1-4)GlcNAc
# Summary of the method: as §1
# [23] = biological target: Fuc(a1-2)[Gal(a1-3)]Gal(b1-3)GlcNAc(b1-2)Man(a1-3)[Fuc(a1-2)[Gal(a1-3)]Gal(b1-3)GlcNAc(b1-2)Man(a1-6)]Man(b1-4)GlcNAc(b1-4)[Fuc(a1-6)]GlcNAc
# Summary of the method: as §1
# [24] = biological target: Fuc(a1-2)[Gal(a1-3)]Gal(b1-3)GlcNAc(b1-3)GalNAc
# Summary of the method: as §1
# [25] = biological target: Fuc(a1-2)[Gal(a1-3)]Gal(b1-3)GlcNAc(b1-6)GalNAc
# Summary of the method: as §1
# [26] = biological target: Fuc(a1-2)[Gal(a1-3)]Gal(b1-4)Glc
# Summary of the method: as §1
# [27] = biological target: Fuc(a1-2)[Gal(a1-3)]Gal(b1-4)GlcNAc
# Summary of the method: as §1
# [28] = biological target: Fuc(a1-2)[Gal(a1-3)]Gal(b1-4)GlcNAc(b1-2)Man
# Summary of the method: as §1
binder,measurement,setting,value
B1,glycan array binding signal (z-score),[1],1.6
same,glycan array binding signal (z-score),[2],0.165
same,glycan array binding signal (z-score),[3],0.239
same,glycan array binding signal (z-score),[4],-0.323
same,glycan array binding signal (z-score),[5],-0.465
same,glycan array binding signal (z-score),[6],1.07
same,glycan array binding signal (z-score),[7],-0.855
same,glycan array binding signal (z-score),[8],-0.605
same,glycan array binding signal (z-score),[9],0.172
same,glycan array binding signal (z-score),[10],1.28
same,glycan array binding signal (z-score),[11],-0.322
same,glycan array binding signal (z-score),[12],-0.617
same,glycan array binding signal (z-score),[13],2.73
same,glycan array binding signal (z-score),[14],-0.518
same,glycan array binding signal (z-score),[15],-0.407
same,glycan array binding signal (z-score),[16],-1.35
same,glycan array binding signal (z-score),[17],0.671
same,glycan array binding signal (z-score),Fuc(a1-2)Gal6S(b1-4)Glc,0.055
same,glycan array binding signal (z-score),[18],0.237
same,glycan array binding signal (z-score),Fuc(a1-2)[Gal(a1-3)]Gal,-0.683
same,glycan array binding signal (z-score),[19],-0.89
same,glycan array binding signal (z-score),[20],-0.908
same,glycan array binding signal (z-score),[21],0.206
same,glycan array binding signal (z-score),[22],0.73
same,glycan array binding signal (z-score),[23],0.631
same,glycan array binding signal (z-score),[24],0.099
same,glycan array binding signal (z-score),[25],-0.454
same,glycan array binding signal (z-score),[26],-0.404
same,glycan array binding signal (z-score),[27],-0.404
same,glycan array binding signal (z-score),[28],-1.01

# Pulled one by one from the entries so far (2):
binder,measurement,setting,value
B1,glycan array binding signal (z-score),[2],0.165
same,glycan array binding signal (z-score),[10],1.28
